# Results of single-concentration screens

The values are deposited in ChEMBL (CHEMBL3988442, “University of Dundee, Small-Polar-MMV Screening Library” (2021)).

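Assay of Toxoplasma gondii numbers, read through their beta-galactosidase reporter with a colour substrate. Concentration: 50 µM. The record gives no direction; the compounds picked for IC50 retests had high values, so higher reads as fewer parasites. About 18,000 compounds were tested under these conditions; 0.94% (about 170) showed 50% or more at least once.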

Results are given as percent effect.
The controls that fix the scale are not given in the record; negative values are as filed.
The compounds are a random part of those screened.

structure | effect
CCC(C(=O)NCc1ccc(F)c(F)c1)n1cccn1 (stereo unspecified) | 4.421%
CC(C)c1noc(CN2CCC(CO)CC2)n1 | -3.617%
NCC1CC12CCOCC2 (stereo unspecified) | -11.58%
Cc1cnc(CN2CC3(CCOC3)CCC2=O)cn1 (stereo unspecified) | -2.648%
CS(=O)(=O)NCCCOc1cccc(C(F)(F)F)n1 | -3.435%
CN(Cc1ccccc1N1CCOCC1)S(N)(=O)=O | -5.632%
CN(C)c1ccc(CN2CCS(=O)(=O)CC2)cn1 | -2.997%
Cc1cc(C(=O)NC(C)(CO)C2CCCCC2)no1 (stereo unspecified) | -7.17%
Cc1ccc(C(=O)NC2CCC(N)CC2)cc1F (stereo unspecified) | 12.46%
CC1=NOC(C)(CNC(=O)Nc2ccc(F)cc2)C1 (stereo unspecified) | -23.4%
COCCNC(=O)c1cc(-c2ccccc2F)no1 | 12.08%
Cc1noc(C)c1S(=O)(=O)NCC1CCCOC1 (stereo unspecified) | -4.683%
OC1(CN2CCCC2)CCN(Cc2cccnc2)CC1 | -24.26%
O=C(CNC(=O)c1cccs1)c1ccccc1 | -23.7%
Cc1cc(C2CC2)nc(N)n1 | 9.847%
CC(C)(C)CC(O)CN (stereo unspecified) | 3.907%
COc1ccc(S(N)(=O)=O)cc1-c1noc(C)n1 | -1.223%
Cc1cc(CN)c(C)n1C | -2.217%
c1ccc(Oc2cccc(NCc3csnn3)c2)nc1 | -2.884%
CC(C)C[C@H](N)C(=O)N1CCC(Oc2ccncc2)C1 (stereo partly specified) | 2.884%
NC(=O)NC(=O)CCn1cc(I)cn1 | -10.06%
O=C(NCC[S+]([O-])c1ccccc1)c1cccnc1O (stereo unspecified) | -1.886%
CNC(=O)CN(C)C1CCC(OC)CC1 (stereo unspecified) | -8.946%
COCC(=O)N(Cc1ccco1)CC(F)(F)F | 8.358%
NCC1CCCNC1=O (stereo unspecified) | -14.49%
CC1CC(=O)N(C)c2ccccc2N1C (stereo unspecified) | -1.908%
CCCNC(=O)NCc1cccnc1N(CC)CC | -5.07%
Cc1nc(CN(C)C(=O)c2nc(C(C)C)cs2)no1 | -6.855%
N[C@@H]1CCN(Cc2ccc(C(F)(F)F)nc2)C[C@H]1O | 6.294%
Nc1[nH]nc(C(=O)N2C[C@H](O)[C@@H](N3CCCC3)C2)c1Cl | -8.994%
c1cc2c(cc1C1=NN=C(NC3CC3)SC1)OCCO2 | -7.627%
OC(CNC1CC1)c1ccc(F)cc1 (stereo unspecified) | -3.677%
CN(CCO)S(=O)(=O)N1CCNCC1 | -13.39%
CCN1CCCC1CNCC(=O)N(C)C (stereo unspecified) | 47.88%
NC(=O)C1(NCc2ccccc2F)CCOCC1 | 11.81%
NC(=O)C1CNCCO1 (stereo unspecified) | -2.744%
COC1CCN(C(=O)CCc2csc(C)n2)CC1 | 9.146%
Cc1cccc(N(C)CC(O)CN2CCOCC2)n1 (stereo unspecified) | -10.86%
NC1CCN(C(=O)C2CCCCC2)C1 (stereo unspecified) | 1.832%
COC(=O)N1CCN(c2ccccn2)CC1 | -24.87%
COc1cccc(CN(C)CC(C)(C)S(C)(=O)=O)c1 | -2.533%
N#Cc1ccccc1CN1CCC(O)CC1 | 7.951%
N#CCC(=O)NCCNC(=O)c1ccccc1 | -0.2005%
CC(CNCC(F)(F)CO)c1ccccc1 (stereo unspecified) | -9.21%
COCC(O)CNc1ncnc2c1CCNCC2 (stereo unspecified) | 21.33%
CCOC1CCCN(CCC(N)=O)C1 (stereo unspecified) | 11.88%
N#Cc1ccc(C2NC(=O)c3cccnc3N2)cc1 (stereo unspecified) | 98.73%
CC(C)NC(=O)c1cccc(C(N)=O)c1 | 5.873%
CC1CN(c2ccc(CNc3nccs3)cn2)CCO1 (stereo unspecified) | -0.7161%
CS(=O)(=O)NCCNC(=O)c1ccc2ccccc2n1 | -2.315%
O=C(COCC(=O)N1CCCCC1)Nc1ccccc1 | 0.6432%
CNC(=O)NCc1cccnc1OC1CCCC1 | 56.84%
COc1cc(N2CCNCC2)ncn1 | -1.471%